Source: paper PMC13043726
Construct, isoform or probe ends are uncertain for at least one entry. The comparison behind a weaker result is the experiment's own reference, which may not be listed here. At least one verdict was read from the data and is not stated in words by the source.

By UniProt entry, the sequences of proteins in these tests, tags left out. Where a name states a change or a piece, a line headed by the entry shows the natural chain unless it says otherwise.
UniProt P23246: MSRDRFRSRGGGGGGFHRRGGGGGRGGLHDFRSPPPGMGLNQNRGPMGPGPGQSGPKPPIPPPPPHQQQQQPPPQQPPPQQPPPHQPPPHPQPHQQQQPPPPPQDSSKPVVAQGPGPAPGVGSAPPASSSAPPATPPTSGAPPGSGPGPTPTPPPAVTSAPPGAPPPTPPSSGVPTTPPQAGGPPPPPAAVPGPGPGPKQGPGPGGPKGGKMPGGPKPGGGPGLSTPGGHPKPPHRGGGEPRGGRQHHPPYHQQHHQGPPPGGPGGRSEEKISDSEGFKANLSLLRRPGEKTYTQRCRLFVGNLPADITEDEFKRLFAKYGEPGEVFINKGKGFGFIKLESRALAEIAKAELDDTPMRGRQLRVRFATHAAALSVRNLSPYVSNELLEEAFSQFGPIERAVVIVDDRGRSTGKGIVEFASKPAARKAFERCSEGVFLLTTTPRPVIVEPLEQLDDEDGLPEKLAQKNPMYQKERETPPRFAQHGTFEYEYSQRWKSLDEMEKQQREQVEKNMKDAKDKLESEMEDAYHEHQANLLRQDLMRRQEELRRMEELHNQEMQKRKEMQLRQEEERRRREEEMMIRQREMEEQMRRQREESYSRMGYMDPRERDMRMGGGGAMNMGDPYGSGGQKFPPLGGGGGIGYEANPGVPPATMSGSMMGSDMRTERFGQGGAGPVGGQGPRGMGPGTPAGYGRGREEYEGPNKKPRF

Target: SFPQ full-length (Homo sapiens) (UniProt P23246)
Experiment: EMSA
Conditions: EMSA: 10 nM probe, 0-1600 nM SFPQ, 20 mM Tris-HCl pH 7.5, 100 mM KCl, 0.5 mM MgCl2, 0.5 mM EDTA, 0.2 mM DTT, 1% glycerol, room temperature, 30 min (RNaseOUT with RNA); recombinant protein; residues 1-707; protein details: N-terminal His6-myc (per text, vector pNIC-CTHF); label: 5'-6-FAM

| Sequence | binding result |
| --- | --- |
| CUACUACCCCCACCC [15-nt ssRNA R1_10] | binds more weakly |
| CUACUACCCCCACCCUCACAACC [23-nt ssRNA R1_B] | binds |
